Laboratory results from the supplement of paper PMC10849652.
Some of the results follow.

Sequences of proteins named here, by UniProt entry; tags and fusion partners are left off. A change or cut given only in a name is not applied to a line headed by its entry.
UniProt Q12931: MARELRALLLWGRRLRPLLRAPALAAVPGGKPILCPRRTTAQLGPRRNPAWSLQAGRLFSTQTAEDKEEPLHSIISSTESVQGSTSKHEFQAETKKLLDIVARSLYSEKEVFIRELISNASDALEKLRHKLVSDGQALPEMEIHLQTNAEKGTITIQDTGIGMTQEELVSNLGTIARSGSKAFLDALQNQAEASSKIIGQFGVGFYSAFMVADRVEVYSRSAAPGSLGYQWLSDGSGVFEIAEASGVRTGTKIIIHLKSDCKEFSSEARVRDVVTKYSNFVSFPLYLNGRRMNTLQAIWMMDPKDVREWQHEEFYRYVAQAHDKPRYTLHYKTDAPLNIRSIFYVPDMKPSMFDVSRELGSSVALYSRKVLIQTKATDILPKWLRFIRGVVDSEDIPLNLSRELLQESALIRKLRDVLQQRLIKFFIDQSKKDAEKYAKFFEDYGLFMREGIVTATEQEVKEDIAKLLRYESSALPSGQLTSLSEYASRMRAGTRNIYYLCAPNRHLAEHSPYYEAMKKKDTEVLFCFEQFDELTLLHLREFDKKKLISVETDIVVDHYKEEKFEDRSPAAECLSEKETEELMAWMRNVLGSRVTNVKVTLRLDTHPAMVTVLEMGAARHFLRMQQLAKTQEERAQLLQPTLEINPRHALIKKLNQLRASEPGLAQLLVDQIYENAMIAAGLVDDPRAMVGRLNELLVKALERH
UniProt Q15785: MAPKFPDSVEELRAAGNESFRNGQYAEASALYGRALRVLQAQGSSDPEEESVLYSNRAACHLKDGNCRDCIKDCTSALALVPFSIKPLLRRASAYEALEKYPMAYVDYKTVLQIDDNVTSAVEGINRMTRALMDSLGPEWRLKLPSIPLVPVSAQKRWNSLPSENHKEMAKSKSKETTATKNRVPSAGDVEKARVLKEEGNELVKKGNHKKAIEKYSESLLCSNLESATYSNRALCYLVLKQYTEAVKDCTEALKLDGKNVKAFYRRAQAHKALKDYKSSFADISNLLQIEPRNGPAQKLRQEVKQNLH
UniProt Q8WW01: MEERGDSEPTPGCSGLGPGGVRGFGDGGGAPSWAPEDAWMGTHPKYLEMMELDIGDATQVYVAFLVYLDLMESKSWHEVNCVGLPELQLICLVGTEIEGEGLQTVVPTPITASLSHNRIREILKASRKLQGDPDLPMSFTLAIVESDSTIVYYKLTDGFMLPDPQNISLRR
UniProt Q5JU69: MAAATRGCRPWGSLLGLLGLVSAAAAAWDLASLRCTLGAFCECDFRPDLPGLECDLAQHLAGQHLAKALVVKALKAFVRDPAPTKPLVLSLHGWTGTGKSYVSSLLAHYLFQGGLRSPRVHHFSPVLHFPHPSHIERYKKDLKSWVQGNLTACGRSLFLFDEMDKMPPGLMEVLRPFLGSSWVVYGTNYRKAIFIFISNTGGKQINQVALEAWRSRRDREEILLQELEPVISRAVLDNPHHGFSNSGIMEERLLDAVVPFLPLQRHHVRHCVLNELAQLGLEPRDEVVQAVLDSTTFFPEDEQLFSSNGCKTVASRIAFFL
UniProt Q9C037: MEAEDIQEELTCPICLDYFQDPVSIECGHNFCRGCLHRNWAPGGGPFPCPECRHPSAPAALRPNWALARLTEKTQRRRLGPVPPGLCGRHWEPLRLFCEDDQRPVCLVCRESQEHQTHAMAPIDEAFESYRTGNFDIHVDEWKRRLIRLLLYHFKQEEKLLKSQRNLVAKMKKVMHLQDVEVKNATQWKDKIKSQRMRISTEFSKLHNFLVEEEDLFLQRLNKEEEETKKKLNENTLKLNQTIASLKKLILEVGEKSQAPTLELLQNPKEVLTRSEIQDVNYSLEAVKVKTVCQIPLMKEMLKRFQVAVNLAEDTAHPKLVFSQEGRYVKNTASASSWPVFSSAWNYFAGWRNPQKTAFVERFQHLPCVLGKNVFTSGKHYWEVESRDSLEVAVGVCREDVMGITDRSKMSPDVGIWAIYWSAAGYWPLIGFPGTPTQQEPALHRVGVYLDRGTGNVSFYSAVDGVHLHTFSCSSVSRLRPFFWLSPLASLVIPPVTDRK
UniProt Q15388, whole entry, looked up: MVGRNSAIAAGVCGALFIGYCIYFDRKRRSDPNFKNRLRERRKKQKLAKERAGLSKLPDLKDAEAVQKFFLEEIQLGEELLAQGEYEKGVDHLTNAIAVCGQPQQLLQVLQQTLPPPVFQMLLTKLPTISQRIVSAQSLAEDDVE
UniProt O94826, whole entry, looked up: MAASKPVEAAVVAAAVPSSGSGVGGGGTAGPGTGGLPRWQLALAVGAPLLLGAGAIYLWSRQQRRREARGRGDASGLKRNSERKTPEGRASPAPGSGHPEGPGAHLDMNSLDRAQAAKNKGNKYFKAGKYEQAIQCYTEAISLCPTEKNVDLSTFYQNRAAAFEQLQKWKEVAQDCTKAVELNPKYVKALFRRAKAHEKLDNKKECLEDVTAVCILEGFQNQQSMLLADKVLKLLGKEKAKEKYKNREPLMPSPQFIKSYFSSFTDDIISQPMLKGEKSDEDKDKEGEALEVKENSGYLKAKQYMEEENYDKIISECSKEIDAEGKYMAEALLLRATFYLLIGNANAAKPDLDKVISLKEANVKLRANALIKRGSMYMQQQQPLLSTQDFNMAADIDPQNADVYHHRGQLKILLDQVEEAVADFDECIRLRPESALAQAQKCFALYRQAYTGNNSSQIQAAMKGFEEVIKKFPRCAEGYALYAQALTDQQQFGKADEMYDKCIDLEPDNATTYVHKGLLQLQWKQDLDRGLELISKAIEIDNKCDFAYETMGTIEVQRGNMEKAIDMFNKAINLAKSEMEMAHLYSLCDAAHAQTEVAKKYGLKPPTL
UniProt A5PLN9: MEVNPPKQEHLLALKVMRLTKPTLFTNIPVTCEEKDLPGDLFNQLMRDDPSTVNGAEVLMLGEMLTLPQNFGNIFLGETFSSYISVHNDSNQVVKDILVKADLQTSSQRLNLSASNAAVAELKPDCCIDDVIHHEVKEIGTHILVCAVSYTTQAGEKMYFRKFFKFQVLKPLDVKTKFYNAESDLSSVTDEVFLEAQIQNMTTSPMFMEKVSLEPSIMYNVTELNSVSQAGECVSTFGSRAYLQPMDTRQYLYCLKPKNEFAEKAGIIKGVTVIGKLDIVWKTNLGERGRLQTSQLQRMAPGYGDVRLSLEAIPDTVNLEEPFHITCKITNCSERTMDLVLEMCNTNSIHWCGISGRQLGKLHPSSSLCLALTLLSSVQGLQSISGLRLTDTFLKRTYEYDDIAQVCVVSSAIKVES
UniProt Q9Y296, whole entry, looked up: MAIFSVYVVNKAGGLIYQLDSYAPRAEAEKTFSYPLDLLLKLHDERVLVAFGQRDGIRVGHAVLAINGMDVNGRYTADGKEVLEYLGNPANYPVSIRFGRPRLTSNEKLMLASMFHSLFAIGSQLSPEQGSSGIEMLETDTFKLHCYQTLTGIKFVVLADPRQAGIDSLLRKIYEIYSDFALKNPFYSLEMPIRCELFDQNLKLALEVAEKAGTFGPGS
UniProt Q02880: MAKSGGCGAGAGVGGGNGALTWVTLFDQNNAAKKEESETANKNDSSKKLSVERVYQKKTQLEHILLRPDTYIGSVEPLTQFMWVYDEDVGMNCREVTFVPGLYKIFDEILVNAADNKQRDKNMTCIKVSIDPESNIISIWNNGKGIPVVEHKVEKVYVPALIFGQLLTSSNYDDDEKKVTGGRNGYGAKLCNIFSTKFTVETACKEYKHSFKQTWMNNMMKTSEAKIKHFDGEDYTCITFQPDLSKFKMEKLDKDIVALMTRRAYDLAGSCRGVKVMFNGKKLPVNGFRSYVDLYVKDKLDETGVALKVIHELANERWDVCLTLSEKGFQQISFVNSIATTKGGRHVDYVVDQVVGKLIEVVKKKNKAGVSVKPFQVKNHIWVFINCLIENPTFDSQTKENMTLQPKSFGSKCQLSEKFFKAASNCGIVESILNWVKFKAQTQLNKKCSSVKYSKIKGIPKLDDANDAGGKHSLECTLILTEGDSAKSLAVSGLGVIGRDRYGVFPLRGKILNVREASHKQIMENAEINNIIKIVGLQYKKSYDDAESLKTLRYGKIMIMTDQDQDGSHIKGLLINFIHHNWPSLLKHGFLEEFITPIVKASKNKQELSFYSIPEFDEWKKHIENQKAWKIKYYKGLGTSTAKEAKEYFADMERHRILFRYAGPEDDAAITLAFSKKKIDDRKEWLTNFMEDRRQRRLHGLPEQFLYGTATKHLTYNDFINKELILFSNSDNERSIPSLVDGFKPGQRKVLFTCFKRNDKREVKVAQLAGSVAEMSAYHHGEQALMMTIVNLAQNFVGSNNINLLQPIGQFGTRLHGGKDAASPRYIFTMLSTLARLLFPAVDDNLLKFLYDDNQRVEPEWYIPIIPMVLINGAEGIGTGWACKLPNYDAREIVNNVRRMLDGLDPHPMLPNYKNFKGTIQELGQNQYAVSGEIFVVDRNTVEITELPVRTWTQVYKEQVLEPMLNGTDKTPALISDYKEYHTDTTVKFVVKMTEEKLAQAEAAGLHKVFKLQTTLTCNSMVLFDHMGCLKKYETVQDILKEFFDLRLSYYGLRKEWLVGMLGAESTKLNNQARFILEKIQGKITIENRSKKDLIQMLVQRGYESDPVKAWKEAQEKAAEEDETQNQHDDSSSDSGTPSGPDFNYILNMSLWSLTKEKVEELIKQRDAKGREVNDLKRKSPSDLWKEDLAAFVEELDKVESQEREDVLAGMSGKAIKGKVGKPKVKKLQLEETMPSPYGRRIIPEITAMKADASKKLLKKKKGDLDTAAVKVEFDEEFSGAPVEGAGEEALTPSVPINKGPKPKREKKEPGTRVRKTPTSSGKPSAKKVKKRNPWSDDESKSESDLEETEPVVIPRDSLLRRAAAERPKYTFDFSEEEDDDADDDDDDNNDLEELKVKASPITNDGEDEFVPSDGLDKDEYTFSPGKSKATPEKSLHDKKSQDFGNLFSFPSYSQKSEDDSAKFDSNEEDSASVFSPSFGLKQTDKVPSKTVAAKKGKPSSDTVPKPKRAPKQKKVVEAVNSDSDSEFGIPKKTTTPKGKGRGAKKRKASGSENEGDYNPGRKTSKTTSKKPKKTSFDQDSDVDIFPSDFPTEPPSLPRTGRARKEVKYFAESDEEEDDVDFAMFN
UniProt Q8IZ69: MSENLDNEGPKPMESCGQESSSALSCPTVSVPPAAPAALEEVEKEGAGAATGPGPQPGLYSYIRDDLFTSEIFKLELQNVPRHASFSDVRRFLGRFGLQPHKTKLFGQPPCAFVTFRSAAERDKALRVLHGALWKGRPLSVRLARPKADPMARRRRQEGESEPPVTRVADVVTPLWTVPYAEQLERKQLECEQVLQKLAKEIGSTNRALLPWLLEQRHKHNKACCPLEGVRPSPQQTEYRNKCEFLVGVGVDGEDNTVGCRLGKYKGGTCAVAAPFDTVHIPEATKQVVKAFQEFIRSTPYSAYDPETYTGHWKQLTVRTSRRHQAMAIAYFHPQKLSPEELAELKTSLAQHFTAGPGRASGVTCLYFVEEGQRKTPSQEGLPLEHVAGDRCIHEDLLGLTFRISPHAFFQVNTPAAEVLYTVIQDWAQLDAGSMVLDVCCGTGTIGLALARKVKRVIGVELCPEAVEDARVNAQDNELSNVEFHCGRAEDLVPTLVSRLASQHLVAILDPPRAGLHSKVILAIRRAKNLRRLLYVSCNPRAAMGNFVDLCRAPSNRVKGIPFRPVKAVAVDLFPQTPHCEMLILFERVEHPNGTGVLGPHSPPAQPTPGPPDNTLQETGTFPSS
UniProt Q86SZ2: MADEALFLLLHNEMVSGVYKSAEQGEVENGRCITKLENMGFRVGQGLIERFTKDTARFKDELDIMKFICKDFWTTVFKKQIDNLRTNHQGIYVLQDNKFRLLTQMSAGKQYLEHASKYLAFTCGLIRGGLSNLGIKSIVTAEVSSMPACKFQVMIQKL
UniProt Q9Y3Q8: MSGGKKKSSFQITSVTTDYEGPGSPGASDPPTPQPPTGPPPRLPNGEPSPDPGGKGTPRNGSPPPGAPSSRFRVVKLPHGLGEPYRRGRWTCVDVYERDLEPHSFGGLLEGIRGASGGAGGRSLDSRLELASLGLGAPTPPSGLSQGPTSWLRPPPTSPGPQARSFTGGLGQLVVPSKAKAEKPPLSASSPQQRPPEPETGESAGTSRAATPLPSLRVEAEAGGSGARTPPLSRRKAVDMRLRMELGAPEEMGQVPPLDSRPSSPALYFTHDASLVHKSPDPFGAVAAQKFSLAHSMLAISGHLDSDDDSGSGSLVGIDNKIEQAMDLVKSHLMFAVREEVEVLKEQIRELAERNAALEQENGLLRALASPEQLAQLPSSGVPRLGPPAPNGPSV
UniProt O14657: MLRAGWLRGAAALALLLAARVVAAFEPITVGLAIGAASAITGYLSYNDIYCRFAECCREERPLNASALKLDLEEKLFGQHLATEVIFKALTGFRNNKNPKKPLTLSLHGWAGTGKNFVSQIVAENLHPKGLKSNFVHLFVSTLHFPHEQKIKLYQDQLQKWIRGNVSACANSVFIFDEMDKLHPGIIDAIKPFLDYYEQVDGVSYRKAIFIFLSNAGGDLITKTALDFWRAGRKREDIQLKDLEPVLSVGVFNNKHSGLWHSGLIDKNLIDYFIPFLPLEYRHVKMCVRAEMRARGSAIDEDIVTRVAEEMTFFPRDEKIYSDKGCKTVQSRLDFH

What was measured:
Assay in all cases: log2 fold change, soluble protein after heating vs DMSO (PISA); higher = thermal stabilisation; K562 cells, 10 uM, 30 min; active = over 0.2 and 3.5 SD of the protein, either way, in both replicates (recomputed)
[1] = compound: NC(=O)Nc1cc(-c2cccc(F)c2)sc1C(=O)N[C@H]1CCCNC1
Outline: (§1)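 Quantification of soluble protein used TMTpro 16plex LC-MS/MS, with channel sums equalised. Samples were the supernatant after 21,000xg for 90 min of pooled aliquots from K562 cells (2×10^6 cells/mL) treated with 10 μM compound for 30 min, heated for 3 min over 48°C-58°C, and extracted in PBS with 0.5% NP-40 at 4°C. Values, from duplicates, describe thermal stability against control samples on a log2 fold-change scale.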

[2] = compound: NC(=O)c1cnc(N[C@@H]2CCCC[C@@H]2N)nc1Nc1cccc(-n2nccn2)c1
Outline: as §1

[3] = compound: NC1(c2ccc(-c3nc4ccn5c(=O)[nH]nc5c4cc3-c3ccccc3)cc2)CCC1
Outline: as §1

[4] = compound: NCC(=O)Nc1ccc(-n2nc(C(F)(F)F)cc2-c2ccc3c(ccc4ccccc43)c2)cc1
Outline: as §1

entinostat = compound: Nc1ccccc1NC(=O)c1ccc(CNC(=O)OCc2cccnc2)cc1 [entinostat]
Outline: as §1

vorinostat = compound: O=C(CCCCCCC(=O)Nc1ccccc1)NO [vorinostat]
Outline: as §1

citarinostat = compound: O=C(CCCCCCNC(=O)c1cnc(N(c2ccccc2)c2ccccc2Cl)nc1)NO [citarinostat]
Outline: as §1

silmitasertib = compound: O=C(O)c1ccc2c(c1)nc(Nc1cccc(Cl)c1)c1ccncc12 [silmitasertib]
Outline: as §1

[5] = compound: O=C1NC(=O)C(c2cnc3ccccn23)=C1c1cn2c3c(cc(F)cc13)CN(C(=O)N1CCCCC1)CC2
Outline: as §1

[6] = compound: c1cc(OCCN2CCCCC2)cc(-c2n[nH]c3ccc(-c4nnc[nH]4)cc23)c1
Outline: as §1

Measured: log2 fold change

TRAP1 (UniProt Q12931)
inactive: [1] 0.011 | [2] -0.001 | [3] -0.024 | [4] 0.047 | entinostat 0.01 | vorinostat -0.01 | citarinostat 0.016 | silmitasertib 0.008 | [5] -0.027 | [6] 0.013

TRMU (UniProt O75648)
inactive: [1] -0.031 | [2] 0.032 | [3] -0.072 | [4] -0.031 | entinostat -0.096 | vorinostat 0.008 | citarinostat -0.044 | silmitasertib -0.009 | [5] -0.086 | [6] -0.003

TOMM34 (UniProt Q15785)
inactive: [1] -0.106 | [2] -0.03 | [3] 0.051 | [4] -0.054 | entinostat 0.024 | vorinostat 0.054 | citarinostat 0.05 | silmitasertib 0.117 | [5] 0.015 | [6] -0.024

TSEN15 (UniProt Q8WW01)
inactive: [1] -0.059 | [2] -0.046 | [3] -0.043 | [4] -0.091 | entinostat -0.105 | vorinostat -0.022 | citarinostat -0.003 | silmitasertib 0.063 | [5] 0.026 | [6] -0.049

TRIP4 (UniProt Q15650)
inactive: [1] -0.031 | [2] 0.024 | [3] -0.088 | [4] -0.028 | entinostat 0.043 | vorinostat 0.05 | citarinostat 0.064 | silmitasertib 0.032 | [5] 0.011 | [6] -0.118

TRUB1 (UniProt Q8WWH5)
inactive: [1] 0.039 | [2] -0.018 | [3] -0.105 | [4] -0.012 | entinostat 0.015 | vorinostat 0.098 | citarinostat 0.038 | silmitasertib 0.015 | [5] -0.037 | [6] -0.057

TRMT10C (UniProt Q7L0Y3)
inactive: [1] -0.055 | [2] -0.027 | [3] -0.137 | [4] -0.018 | entinostat 0.022 | vorinostat 0 | citarinostat -0.018 | silmitasertib -0.026 | [5] -0.075 | [6] 0.035

TP53RK (UniProt Q96S44)
inactive: [1] 0.011 | [2] -0.021 | [3] -0.006 | [4] -0.009 | entinostat -0.024 | vorinostat -0.018 | citarinostat 0.015 | silmitasertib -0.026 | [5] -0.026 | [6] -0.046

TOR2A (UniProt Q5JU69)
inactive: [1] -0.064 | [2] 0.021 | [3] -0.046 | [4] -0.005 | entinostat -0.055 | vorinostat 0.033 | citarinostat -0.112 | silmitasertib -0.011 | [5] -0.008 | [6] -0.146

TRAPPC3 (UniProt O43617)
inactive: [1] 0.017 | [2] -0.056 | [3] -0.145 | [4] -0.058 | entinostat 0.022 | vorinostat 0.004 | citarinostat 0.038 | silmitasertib 0.032 | [5] 0 | [6] -0.048

TRIM4 (UniProt Q9C037)
inactive: [1] -0.04 | [2] 0.007 | [3] 0.082 | [4] -0.294 | entinostat 0.03 | vorinostat -0.03 | citarinostat -0.006 | silmitasertib 0.042 | [5] -0.051 | [6] -0.049

TOMM20 (UniProt Q15388)
inactive: [1] 0.008 | [2] -0.034 | [3] -0.023 | [4] -0.131 | entinostat 0.01 | vorinostat 0.031 | citarinostat -0.088 | silmitasertib -0.006 | [5] -0.088 | [6] -0.01

TOMM70 (UniProt O94826)
inactive: [1] -0.018 | [2] -0.056 | [3] -0.092 | [4] -0.033 | entinostat 0.042 | vorinostat 0 | citarinostat 0.043 | silmitasertib -0.003 | [5] -0.017 | [6] -0.023

TRIP13 (UniProt Q15645)
inactive: [1] 0.03 | [2] -0.016 | [3] -0.142 | [4] 0.003 | entinostat 0.012 | vorinostat 0.069 | citarinostat 0.064 | silmitasertib -0.028 | [5] -0.008 | [6] -0.049

TOP2A isoform 4 (UniProt P11388)
inactive: [1] 0.159 | [2] 0.058 | [3] 0.307 | [4] 0.19 | entinostat -0.042 | vorinostat 0.034 | citarinostat -0.112 | silmitasertib 0.255 | [5] 0.296 | [6] -0.205

TRMT6 (UniProt Q9UJA5)
inactive: [1] -0.023 | [2] -0.145 | [3] 0.166 | [4] 0.044 | entinostat -0.058 | vorinostat 0.008 | citarinostat -0.079 | silmitasertib 0.095 | [5] 0.193 | [6] -0.123

TRIR (UniProt Q9BQ61)
inactive: [1] -0.017 | [2] -0.007 | [3] 0.05 | [4] 0.027 | entinostat -0.076 | vorinostat -0.103 | citarinostat -0.043 | silmitasertib 0.029 | [5] -0.085 | [6] 0.028

TOR1AIP1 isoform 3 (UniProt Q5JTV8)
inactive: [1] -0.018 | [2] 0.016 | [3] -0.03 | [4] 0.01 | entinostat -0.008 | vorinostat -0.019 | citarinostat 0.048 | silmitasertib -0.01 | [5] -0.022 | [6] -0.005

TRPV2 (UniProt Q9Y5S1)
inactive: [1] -0.079 | [2] 0.011 | [3] -0.035 | [4] 0.04 | entinostat -0.053 | vorinostat -0.024 | citarinostat 0.027 | silmitasertib 0.008 | [5] -0.059 | [6] -0.063

TRAPPC13 isoform 5 (UniProt A5PLN9)
inactive: [1] -0.01 | [2] -0.248 | [3] -0.269 | [4] -0.148 | entinostat 0.045 | vorinostat 0.079 | citarinostat 0.136 | silmitasertib 0.017 | [5] -0.016 | [6] -0.13

TRAPPC8 (UniProt Q9Y2L5)
inactive: [1] -0.039 | [2] -0.082 | [3] -0.168 | [4] -0.028 | entinostat 0.042 | vorinostat 0.053 | citarinostat 0.051 | silmitasertib 0.07 | [5] -0.016 | [6] -0.205

TRAPPC4 (UniProt Q9Y296)
inactive: [1] -0.062 | [2] 0.043 | [3] -0.059 | [4] -0.002 | entinostat 0.007 | vorinostat -0.008 | citarinostat 0.045 | silmitasertib 0.046 | [5] 0.01 | [6] -0.065

TOP2B (UniProt Q02880)
inactive: [1] 0.19 | [2] 0.023 | [3] 0.245 | [4] 0.173 | entinostat -0.03 | vorinostat -0.001 | citarinostat -0.128 | silmitasertib 0.129 | [5] 0.354 | [6] -0.129

TOE1 (UniProt Q96GM8)
inactive: [1] 0.09 | [2] -0.011 | [3] 0.104 | [4] -0.01 | entinostat -0.038 | vorinostat -0.047 | citarinostat 0.011 | silmitasertib 0.026 | [5] 0.122 | [6] -0.18

TRMT2A (UniProt Q8IZ69)
inactive: [1] -0.031 | [2] -0.128 | [3] -0.091 | [4] -0.003 | entinostat 0.022 | vorinostat 0.03 | citarinostat -0.03 | silmitasertib -0.003 | [5] 0.018 | [6] -0.062

TRAPPC6B (UniProt Q86SZ2)
inactive: [1] 0.025 | [2] 0.016 | [3] -0.025 | [4] 0.007 | entinostat 0.066 | vorinostat 0.013 | citarinostat 0.046 | silmitasertib 0.001 | [5] 0.143 | [6] -0.058

TRMT1 (UniProt Q9NXH9)
inactive: [1] 0.01 | [2] 0.027 | [3] -0.007 | [4] 0.002 | entinostat -0.025 | vorinostat -0.032 | citarinostat -0.018 | silmitasertib -0.02 | [5] -0.038 | [6] 0.007

TSC22D4 (UniProt Q9Y3Q8)
inactive: [1] 0.056 | [2] -0.021 | [3] -0.015 | [4] 0.011 | entinostat 0.011 | vorinostat 0.031 | citarinostat 0.047 | silmitasertib 0.013 | [5] -0.067 | [6] -0.007

TOR1B (UniProt O14657)
inactive: [1] -0.015 | [2] -0.054 | [3] -0.067 | [4] -0.035 | entinostat 0.016 | vorinostat -0.046 | citarinostat 0.02 | silmitasertib 0.048 | [5] 0.014 | [6] -0.149

Two consecutive records out of the list so far:
TRAPPC6B (UniProt Q86SZ2)
inactive: [1] 0.025 | [2] 0.016 | [3] -0.025 | [4] 0.007 | entinostat 0.066 | vorinostat 0.013 | citarinostat 0.046 | silmitasertib 0.001 | [5] 0.143 | [6] -0.058

TRMT1 (UniProt Q9NXH9)
inactive: [1] 0.01 | [2] 0.027 | [3] -0.007 | [4] 0.002 | entinostat -0.025 | vorinostat -0.032 | citarinostat -0.018 | silmitasertib -0.02 | [5] -0.038 | [6] 0.007

Later entries

TRAPPC12 (UniProt Q8WVT3)
inactive: [1] -0.046 | [2] -0.01 | [3] -0.183 | [4] -0.015 | entinostat 0.013 | vorinostat 0.014 | citarinostat 0.042 | silmitasertib 0.026 | [5] -0.008 | [6] -0.146
